# Source: PubChem BioAssay AID652272 (Drosophila RNAi Screening Center, 2013)
# Test: 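Finding fly genes that regulate Hedgehog signal transduction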 (primary screen)
# System: Drosophila clone 8 (Cl8) cells
# Reagents: long dsRNA against Drosophila genes
# Measured: 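Plate reader light from a firefly reporter under a ptc promoter fragment that responds to Hedgehog, with Renilla light as transfection reference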
# Direction: firefly Hh reporter signal: higher = more ptc reporter light; Renilla reference signal: higher = more Renilla control light
# Hit rule: 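Called a hit if the two-replicate mean z-score lies below -2 or above +3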
# Calls: active = hit: reporter lowered or raised; inactive = not a hit
# In all, the deposit lists about 21,000 reagents; below is an unselected part of those with a known target gene and a result. Of all reagents, 503 (2.4%) were called active. 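Raw plate light values, not normalised; calls rest on replicate z-scores that were not deposited; hits include reporter decreases as well as increases.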 A number with no mark means an inactive call. The record does not give: the amount of reagent, the time to read-out.
predicted target,amplicon,"firefly Hh reporter signal, replicate 1","firefly Hh reporter signal, replicate 2","firefly Hh reporter signal, replicate 3","Renilla reference signal, replicate 1","Renilla reference signal, replicate 2"
CG8613,DRSC07222,1.32e5,71930,,4657,2778
niki,DRSC14285,6.16e5,1.34e5,,32040,4252
CG15025,DRSC15031,5.50e5,71392,,30426,1847
Slbp,DRSC16863,76539,89842,,2602,2912
Tengl4,DRSC15620,88237,92743,,2408,2453
CG8960,DRSC08612,1.06e5,91184,,4707,4181
CG8490,DRSC07194,98182,78784,,4565,3221
Pop5,DRSC10074,1.38e5,,,246,2229
spin,DRSC07176,1.31e5,6.15e5,1.06e5,5031,38921
Karl,DRSC19883,1.08e5,73312,,2919,1890
Lamtor5,DRSC18491,78048,2.60e5,,2112,10891
CG8405,DRSC05599,1.10e5,1.78e5,,3427,8875
CG8405,DRSC07166,82038,71330,,1371,4779
Ogg1,DRSC17738,80775,1.01e5,,2027,2375
MED11,DRSC10739,29042,,,2424,700
ninaC,DRSC03579,33868,73141,,2000,2712
p130CAS,DRSC07862,1.85e5,3.11e5,,5816,13094
p130CAS,DRSC08257,1.15e5,93069,,5288,3989
Cdep,DRSC12028,2.48e5,,,5476,
Cdep,DRSC12220,1.66e5,90864,,5697,3648
Cdep,DRSC12291,74039,91153,,2809,1352
CG14961,DRSC08420,1.01e5,46792,,2459,3628
CG32301,DRSC08613,82758,33060,,2505,2693
